Consider one molecule from PMC5383399, “Kinesin-4 KIF21B is a potent microtubule pausing factor” (eLife, 2017).

In the experiment the target is recombinant KIF21B rCC (residues 930–1010) (human) (UniProt O75037). Put plainly: AUC; sedimentation velocity, 20°C, 42,000 rpm, Tris-HCl pH 7.5, 150 mM NaCl, 2 mM DTT, three different protein concentrations; both purified.

These are yes or no findings as the source states them, for the method shown.

B1: recombinant KIF21B rCC (residues 930–1010) (domain or fragment, UniProt O75037 930-1010)
chain: RMTIVNLEADMERLIKKREELFLLQEALRRKRERLQAESPEEEKGLQELAEEIEVLAANIDYINDGITDCQATIVQLEETK
With B1, the binding result is “no binding”.
